Measurements taken from the supplement of paper PMC6411743.
± gives the standard deviation of the averaged measurements. The list shows a part of the results, in another mix than the full data.

Amino acid sequences for entries named in this document (tags omitted). A change or cut given only in a name is not applied to a line headed by its entry.
UniProt Q9NUT2: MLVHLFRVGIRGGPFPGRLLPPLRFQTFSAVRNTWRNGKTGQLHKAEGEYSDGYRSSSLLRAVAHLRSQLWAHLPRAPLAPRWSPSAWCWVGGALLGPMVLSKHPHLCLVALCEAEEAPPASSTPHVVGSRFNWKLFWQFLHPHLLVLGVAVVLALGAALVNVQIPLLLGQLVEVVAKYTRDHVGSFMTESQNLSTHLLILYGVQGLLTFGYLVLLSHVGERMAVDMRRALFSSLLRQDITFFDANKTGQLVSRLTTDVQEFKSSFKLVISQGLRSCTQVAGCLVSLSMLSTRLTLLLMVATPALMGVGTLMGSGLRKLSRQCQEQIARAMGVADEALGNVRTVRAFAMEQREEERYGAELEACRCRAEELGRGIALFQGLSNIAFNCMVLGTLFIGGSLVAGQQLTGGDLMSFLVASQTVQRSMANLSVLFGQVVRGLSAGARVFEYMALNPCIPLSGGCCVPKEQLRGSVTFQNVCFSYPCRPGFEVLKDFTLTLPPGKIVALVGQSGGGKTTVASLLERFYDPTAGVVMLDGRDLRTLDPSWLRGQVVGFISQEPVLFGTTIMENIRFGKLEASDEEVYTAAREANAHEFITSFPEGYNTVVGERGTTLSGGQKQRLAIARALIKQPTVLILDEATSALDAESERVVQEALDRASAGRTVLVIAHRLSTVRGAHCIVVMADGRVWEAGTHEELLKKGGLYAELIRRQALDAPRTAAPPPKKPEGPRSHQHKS
UniProt Q9NXH9: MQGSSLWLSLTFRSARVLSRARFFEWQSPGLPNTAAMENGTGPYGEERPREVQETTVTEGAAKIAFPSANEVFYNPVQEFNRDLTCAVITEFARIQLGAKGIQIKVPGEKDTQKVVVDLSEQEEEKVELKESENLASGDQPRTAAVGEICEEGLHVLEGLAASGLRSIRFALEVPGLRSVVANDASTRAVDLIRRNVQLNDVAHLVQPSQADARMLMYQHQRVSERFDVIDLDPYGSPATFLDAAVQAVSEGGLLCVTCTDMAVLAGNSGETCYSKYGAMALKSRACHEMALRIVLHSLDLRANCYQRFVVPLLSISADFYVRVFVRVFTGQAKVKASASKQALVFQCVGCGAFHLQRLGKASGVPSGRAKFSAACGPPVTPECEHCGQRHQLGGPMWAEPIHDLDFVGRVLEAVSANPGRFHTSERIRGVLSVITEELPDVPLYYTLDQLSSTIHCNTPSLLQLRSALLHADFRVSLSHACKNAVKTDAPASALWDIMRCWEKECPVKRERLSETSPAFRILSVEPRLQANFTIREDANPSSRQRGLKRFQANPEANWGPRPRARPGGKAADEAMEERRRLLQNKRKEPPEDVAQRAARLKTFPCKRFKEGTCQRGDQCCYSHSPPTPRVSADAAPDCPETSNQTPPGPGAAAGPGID
UniProt Q9NZR1: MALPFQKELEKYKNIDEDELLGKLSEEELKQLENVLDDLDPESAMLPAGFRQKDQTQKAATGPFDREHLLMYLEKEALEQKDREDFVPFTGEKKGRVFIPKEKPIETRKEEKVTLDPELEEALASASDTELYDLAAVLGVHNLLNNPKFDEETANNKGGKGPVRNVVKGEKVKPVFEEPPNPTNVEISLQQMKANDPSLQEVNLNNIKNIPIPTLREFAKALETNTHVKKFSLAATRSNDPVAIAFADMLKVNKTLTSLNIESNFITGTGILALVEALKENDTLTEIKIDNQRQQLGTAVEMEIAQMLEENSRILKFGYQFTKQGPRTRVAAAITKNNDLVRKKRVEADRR
UniProt Q9NRN7: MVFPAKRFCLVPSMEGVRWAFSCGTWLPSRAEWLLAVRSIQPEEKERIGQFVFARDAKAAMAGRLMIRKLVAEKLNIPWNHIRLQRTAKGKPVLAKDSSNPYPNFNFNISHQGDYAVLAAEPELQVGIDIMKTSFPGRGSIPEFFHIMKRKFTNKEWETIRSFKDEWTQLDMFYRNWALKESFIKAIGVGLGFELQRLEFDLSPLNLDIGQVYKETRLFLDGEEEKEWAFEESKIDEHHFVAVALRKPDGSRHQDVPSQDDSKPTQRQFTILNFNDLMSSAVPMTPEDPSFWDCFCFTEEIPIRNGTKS
UniProt Q9P032: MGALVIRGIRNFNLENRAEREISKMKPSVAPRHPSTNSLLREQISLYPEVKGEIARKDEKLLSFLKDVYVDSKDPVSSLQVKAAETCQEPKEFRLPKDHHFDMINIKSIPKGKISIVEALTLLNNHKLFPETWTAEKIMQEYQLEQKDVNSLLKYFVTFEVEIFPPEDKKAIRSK
UniProt Q9NQ88: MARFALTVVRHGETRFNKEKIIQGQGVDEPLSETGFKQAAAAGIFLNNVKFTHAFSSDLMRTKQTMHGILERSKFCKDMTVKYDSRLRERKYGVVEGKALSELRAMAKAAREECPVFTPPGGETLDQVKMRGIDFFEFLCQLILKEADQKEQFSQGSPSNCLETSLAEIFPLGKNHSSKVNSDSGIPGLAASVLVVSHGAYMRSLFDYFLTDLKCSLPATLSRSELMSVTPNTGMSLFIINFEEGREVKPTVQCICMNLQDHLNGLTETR
UniProt Q9NVF7: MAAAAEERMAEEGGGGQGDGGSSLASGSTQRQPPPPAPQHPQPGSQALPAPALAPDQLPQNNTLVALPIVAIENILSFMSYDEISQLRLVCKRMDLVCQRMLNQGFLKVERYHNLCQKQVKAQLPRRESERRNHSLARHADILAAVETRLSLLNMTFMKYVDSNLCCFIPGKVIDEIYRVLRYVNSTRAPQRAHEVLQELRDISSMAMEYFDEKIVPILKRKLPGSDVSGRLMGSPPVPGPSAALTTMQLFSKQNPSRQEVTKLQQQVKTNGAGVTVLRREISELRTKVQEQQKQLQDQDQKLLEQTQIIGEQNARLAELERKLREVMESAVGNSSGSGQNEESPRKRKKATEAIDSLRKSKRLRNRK
UniProt Q9NX24: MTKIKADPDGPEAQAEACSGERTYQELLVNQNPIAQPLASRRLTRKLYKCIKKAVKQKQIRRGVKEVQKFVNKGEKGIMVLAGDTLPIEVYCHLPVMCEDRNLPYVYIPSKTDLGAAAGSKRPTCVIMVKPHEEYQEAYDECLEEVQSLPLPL
UniProt Q9NXC5: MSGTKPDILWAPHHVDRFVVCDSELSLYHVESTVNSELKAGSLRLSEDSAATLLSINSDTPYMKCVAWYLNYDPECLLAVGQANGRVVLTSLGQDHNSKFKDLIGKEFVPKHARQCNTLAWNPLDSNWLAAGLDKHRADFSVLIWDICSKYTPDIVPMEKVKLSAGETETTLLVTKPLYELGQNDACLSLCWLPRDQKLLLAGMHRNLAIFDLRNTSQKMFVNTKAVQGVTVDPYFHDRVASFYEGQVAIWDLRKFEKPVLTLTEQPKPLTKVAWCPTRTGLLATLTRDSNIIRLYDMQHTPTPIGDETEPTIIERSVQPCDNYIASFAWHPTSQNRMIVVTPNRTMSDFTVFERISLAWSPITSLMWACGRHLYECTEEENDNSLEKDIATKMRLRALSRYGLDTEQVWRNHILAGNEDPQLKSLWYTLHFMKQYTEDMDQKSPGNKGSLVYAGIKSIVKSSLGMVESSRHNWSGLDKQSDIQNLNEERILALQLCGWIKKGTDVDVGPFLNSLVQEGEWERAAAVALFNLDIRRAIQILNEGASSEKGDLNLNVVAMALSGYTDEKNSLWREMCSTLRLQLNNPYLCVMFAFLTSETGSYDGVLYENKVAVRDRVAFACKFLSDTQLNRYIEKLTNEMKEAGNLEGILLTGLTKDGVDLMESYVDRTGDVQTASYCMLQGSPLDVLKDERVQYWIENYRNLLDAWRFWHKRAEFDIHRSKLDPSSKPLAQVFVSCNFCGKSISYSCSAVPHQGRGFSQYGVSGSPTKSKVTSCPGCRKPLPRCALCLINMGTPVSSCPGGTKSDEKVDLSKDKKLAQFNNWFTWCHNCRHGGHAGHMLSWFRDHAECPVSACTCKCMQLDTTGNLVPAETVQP
UniProt Q9NYB0: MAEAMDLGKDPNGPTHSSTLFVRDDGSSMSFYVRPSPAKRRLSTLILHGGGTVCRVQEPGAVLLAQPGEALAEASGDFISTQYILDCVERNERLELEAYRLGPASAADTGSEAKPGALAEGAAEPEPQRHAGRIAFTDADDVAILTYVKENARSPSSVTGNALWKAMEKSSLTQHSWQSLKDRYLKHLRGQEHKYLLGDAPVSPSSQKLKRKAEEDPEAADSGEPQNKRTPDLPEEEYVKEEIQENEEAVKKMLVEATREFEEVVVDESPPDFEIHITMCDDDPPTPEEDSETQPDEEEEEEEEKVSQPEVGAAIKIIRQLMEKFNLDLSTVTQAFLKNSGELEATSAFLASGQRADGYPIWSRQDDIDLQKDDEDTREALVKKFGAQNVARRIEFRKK
UniProt Q9NV35: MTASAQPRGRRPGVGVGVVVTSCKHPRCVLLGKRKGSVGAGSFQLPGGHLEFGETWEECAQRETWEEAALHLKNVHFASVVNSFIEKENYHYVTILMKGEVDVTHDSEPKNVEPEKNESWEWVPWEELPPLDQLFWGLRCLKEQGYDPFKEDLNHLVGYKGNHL
UniProt Q9NY27: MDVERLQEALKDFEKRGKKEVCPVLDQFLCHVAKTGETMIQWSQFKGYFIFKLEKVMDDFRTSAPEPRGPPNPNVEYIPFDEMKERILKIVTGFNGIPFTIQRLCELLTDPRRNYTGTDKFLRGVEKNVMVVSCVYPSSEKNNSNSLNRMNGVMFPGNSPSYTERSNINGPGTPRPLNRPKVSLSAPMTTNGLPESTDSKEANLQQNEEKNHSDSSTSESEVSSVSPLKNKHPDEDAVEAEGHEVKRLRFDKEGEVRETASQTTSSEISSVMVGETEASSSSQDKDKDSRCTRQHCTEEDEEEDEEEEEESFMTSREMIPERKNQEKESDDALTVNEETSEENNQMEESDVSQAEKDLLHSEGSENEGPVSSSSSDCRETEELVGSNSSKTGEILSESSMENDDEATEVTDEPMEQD
UniProt Q9NUJ1: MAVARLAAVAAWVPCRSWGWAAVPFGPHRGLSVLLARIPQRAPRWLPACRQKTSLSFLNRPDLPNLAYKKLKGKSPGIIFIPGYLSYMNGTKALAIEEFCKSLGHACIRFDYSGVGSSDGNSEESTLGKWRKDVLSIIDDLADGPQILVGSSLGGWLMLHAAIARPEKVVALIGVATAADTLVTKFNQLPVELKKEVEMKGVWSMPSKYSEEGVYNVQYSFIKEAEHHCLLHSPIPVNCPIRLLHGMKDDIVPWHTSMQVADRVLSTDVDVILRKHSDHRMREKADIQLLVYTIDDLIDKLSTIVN
UniProt Q9NUQ9: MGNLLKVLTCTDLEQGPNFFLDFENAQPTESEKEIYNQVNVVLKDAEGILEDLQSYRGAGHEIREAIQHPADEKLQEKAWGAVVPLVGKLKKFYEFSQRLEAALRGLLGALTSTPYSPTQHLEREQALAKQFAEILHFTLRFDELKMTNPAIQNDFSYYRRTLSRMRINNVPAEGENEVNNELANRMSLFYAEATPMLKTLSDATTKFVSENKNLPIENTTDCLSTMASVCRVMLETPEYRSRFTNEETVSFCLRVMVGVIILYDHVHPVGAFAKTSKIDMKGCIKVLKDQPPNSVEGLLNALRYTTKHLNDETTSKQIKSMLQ
UniProt Q9NX07: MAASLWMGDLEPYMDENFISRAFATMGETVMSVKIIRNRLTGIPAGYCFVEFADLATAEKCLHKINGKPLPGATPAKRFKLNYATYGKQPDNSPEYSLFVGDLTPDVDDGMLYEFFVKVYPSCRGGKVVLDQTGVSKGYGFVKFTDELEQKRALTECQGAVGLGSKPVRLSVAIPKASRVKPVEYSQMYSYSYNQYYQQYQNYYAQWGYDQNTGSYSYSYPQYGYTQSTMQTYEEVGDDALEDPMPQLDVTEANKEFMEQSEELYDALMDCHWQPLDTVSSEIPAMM
UniProt Q9NPA8: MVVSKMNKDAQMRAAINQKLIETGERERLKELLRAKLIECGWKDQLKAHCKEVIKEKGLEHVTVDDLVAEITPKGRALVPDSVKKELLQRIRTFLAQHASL
UniProt Q9NWK9: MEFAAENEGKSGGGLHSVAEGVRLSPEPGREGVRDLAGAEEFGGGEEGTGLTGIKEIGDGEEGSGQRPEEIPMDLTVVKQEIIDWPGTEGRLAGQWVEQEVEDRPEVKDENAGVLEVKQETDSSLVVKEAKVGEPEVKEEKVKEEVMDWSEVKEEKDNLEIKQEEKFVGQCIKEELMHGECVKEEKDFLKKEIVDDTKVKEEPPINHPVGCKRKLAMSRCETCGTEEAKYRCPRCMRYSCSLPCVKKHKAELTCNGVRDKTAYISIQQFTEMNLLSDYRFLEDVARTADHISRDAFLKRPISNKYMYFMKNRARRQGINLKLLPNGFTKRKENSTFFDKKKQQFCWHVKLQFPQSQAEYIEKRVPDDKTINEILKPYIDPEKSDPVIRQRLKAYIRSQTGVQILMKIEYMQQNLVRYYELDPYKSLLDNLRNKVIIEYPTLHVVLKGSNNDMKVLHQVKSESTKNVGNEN
UniProt Q9NYP9: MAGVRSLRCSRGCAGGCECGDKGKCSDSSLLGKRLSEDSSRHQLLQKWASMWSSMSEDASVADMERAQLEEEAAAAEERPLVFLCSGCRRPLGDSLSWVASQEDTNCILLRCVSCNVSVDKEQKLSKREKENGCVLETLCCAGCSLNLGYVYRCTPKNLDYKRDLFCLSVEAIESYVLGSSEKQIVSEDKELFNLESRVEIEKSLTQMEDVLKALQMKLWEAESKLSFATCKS

Compound: Nc1ncnc2c1ncn2[C@@H]1O[C@H](COP(=O)(O)OP(=O)(O)OP(=O)(O)O)[C@@H](O)[C@H]1O [adenosine triphosphate]
Assay: NP40-soluble protein abundance relative to vehicle (solubility fold change) (ratio); higher = more soluble protein in presence of ATP
How it was run: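 Jurkat crude lysate prepared with a Dounce homogeniser was treated at eight concentrations spanning 0.1 to 10 mM, 10 min at room temperature then 3 min at 37 °C. Solubilisation with 0.8% NP40 and benzonase and ultracentrifugation preceded TMT labelling of the supernatant for LC-MS/MS. Fold change against the detergent-processed vehicle was determined per replicate from vsn-normalised intensities, across three independent experiments.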

Row | Target | NP40-soluble protein abundance (concentration: 1mM) | NP40-soluble protein abundance (concentration: 2mM) | NP40-soluble protein abundance (concentration: 4mM) | NP40-soluble protein abundance (concentration: 6mM) | NP40-soluble protein abundance (concentration: 8mM) | NP40-soluble protein abundance (concentration: 10mM)
1 | UniProt Q9NUT2 and related entries | 1.03 ± 0.06 | 0.985 ± 0.053 | 1.03 ± 0.061 | 0.996 ± 0.1 | 1.02 ± 0.054 | 1 ± 0.074
2 | UniProt Q9NXH9 and related entries | 1.01 ± 0.021 | 0.9884 ± 0.0048 | 0.973 ± 0.04 | 0.981 ± 0.015 | 0.978 ± 0.042 | 0.99 ± 0.011
3 | TMOD2 (UniProt Q9NZR1) | 1.02 ± 0.082 | 1.01 ± 0.042 | 1.04 ± 0.065 | 1.06 ± 0.072 | 1.05 ± 0.071 | 1 ± 0.1
4 | AASDHPPT (UniProt Q9NRN7) | 0.993 ± 0.13 | 0.948 ± 0.081 | 0.925 ± 0.068 | 0.917 ± 0.17 | 0.964 ± 0.083 | 0.945 ± 0.084
5 | UniProt Q9P032 | 0.955 ± 0.053 | 0.954 ± 0.075 | 0.938 ± 0.073 | 0.944 ± 0.062 | 0.92 ± 0.037 | 0.911 ± 0.095
6 | UniProt Q9NQ88 | 0.978 ± 0.02 | 0.992 ± 0.032 | 0.96 ± 0.018 | 0.952 ± 0.03 | 0.949 ± 0.013 | 0.953 ± 0.013
7 | BIN3 (UniProt Q9NQY0) | 0.933 ± 0.11 | 0.962 ± 0.041 | 0.989 ± 0.14 | 0.974 ± 0.16 | 0.934 ± 0.12 | 0.866 ± 0.19
8 | FBXO28 (UniProt Q9NVF7) | 1.28 ± 0.019 | 1.31 ± 0.1 | 1.37 ± 0.12 | 1.44 ± 0.22 | 1.44 ± 0.14 | 1.32 ± 0.01
9 | NHP2 (UniProt Q9NX24) | 1.05 ± 0.086 | 1.1 ± 0.12 | 1.2 ± 0.12 | 1.35 ± 0.13 | 1.5 ± 0.094 | 1.65 ± 0.16
10 | UniProt Q9NZL9 and related entries | 0.984 ± 0.054 | 0.99 ± 0.041 | 0.965 ± 0.048 | 0.978 ± 0.03 | 0.979 ± 0.052 | 0.958 ± 0.051
11 | UniProt Q9NWU2 | 0.926 ± 0.12 | 0.823 ± 0.17 | 0.805 ± 0.068 | 0.872 ± 0.18 | 0.886 ± 0.067 | 0.731 ± 0.13
12 | PDLIM7 (UniProt Q9NR12) | 1 ± 0.029 | 0.991 ± 0.012 | 1.01 ± 0.015 | 0.99 ± 0.025 | 0.997 ± 0.027 | 0.996 ± 0.012
13 | COMMD9 (UniProt Q9P000) | 0.997 ± 0.023 | 1 ± 0.015 | 0.997 ± 0.012 | 0.985 ± 0.049 | 0.959 ± 0.041 | 0.911 ± 0.034
14 | MIOS (UniProt Q9NXC5) | 1.18 ± 0.065 | 1.2 ± 0.057 | 1.27 ± 0.028 | 1.21 ± 0.055 | 1.33 ± 0.051 | 1.36 ± 0.071
15 | LANCL2 (UniProt Q9NS86) | 0.985 ± 0.074 | 0.975 ± 0.047 | 0.986 ± 0.027 | 0.93 ± 0.062 | 0.977 ± 0.052 | 1.015 ± 0.0027
16 | TERF2IP (UniProt Q9NYB0) | 1.01 ± 0.061 | 1.03 ± 0.021 | 1.01 ± 0.015 | 1.07 ± 0.029 | 0.9913 ± 0.0076 | 0.979 ± 0.029
17 | NUDT15 (UniProt Q9NV35) | 0.994 ± 0.043 | 1.01 ± 0.035 | 0.978 ± 0.051 | 0.989 ± 0.013 | 0.979 ± 0.026 | 0.947 ± 0.063
18 | PPP4R2 (UniProt Q9NY27) | 0.918 ± 0.077 | 0.953 ± 0.032 | 0.93 ± 0.051 | 0.984 ± 0.04 | 0.927 ± 0.038 | 0.933 ± 0.014
19 | ABHD10 (UniProt Q9NUJ1) | 1.03 ± 0.13 | 1.01 ± 0.084 | 0.972 ± 0.053 | 0.952 ± 0.083 | 0.978 ± 0.044 | 0.985 ± 0.054
20 | UniProt Q9P0J1 and related entries | 0.969 ± 0.029 | 0.989 ± 0.058 | 0.949 ± 0.025 | 0.941 ± 0.077 | 0.953 ± 0.059 | 0.991 ± 0.059
21 | KLC4 (UniProt Q9NSK0) | 0.868 ± 0.065 | 0.877 ± 0.042 | 0.861 ± 0.039 | 0.885 ± 0.026 | 0.837 ± 0.035 | 0.863 ± 0.041
22 | RTN4 (UniProt Q9NQC3) | 0.963 ± 0.031 | 0.962 ± 0.0098 | 0.985 ± 0.027 | 0.977 ± 0.012 | 0.971 ± 0.027 | 0.944 ± 0.042
23 | TXNL4B (UniProt Q9NX01) | 0.983 ± 0.025 | 0.967 ± 0.07 | 0.994 ± 0.068 | 0.946 ± 0.038 | 0.981 ± 0.041 | 0.954 ± 0.028
24 | UniProt Q9NUQ9 and related entries | 0.948 ± 0.01 | 0.986 ± 0.044 | 0.937 ± 0.033 | 0.984 ± 0.033 | 0.932 ± 0.068 | 0.925 ± 0.08
25 | UniProt Q9NZT2 and related entries | 0.9342 ± 0.0093 | 0.9448 ± 0.0094 | 0.941 ± 0.027 | 0.915 ± 0.033 | 0.9361 ± 0.0074 | 0.943 ± 0.017
26 | TRNAU1AP (UniProt Q9NX07) | 0.968 ± 0.059 | 0.982 ± 0.033 | 0.951 ± 0.031 | 0.971 ± 0.034 | 0.918 ± 0.03 | 0.959 ± 0.045
27 | UniProt Q9NPA8 and related entries | 0.951 ± 0.19 | 0.983 ± 0.21 | 0.909 ± 0.2 | 0.998 ± 0.21 | 0.865 ± 0.11 | 0.915 ± 0.17
28 | UniProt Q9NWF9 and related entries | 0.88 ± 0.081 | 0.914 ± 0.061 | 0.944 ± 0.063 | 0.988 ± 0.09 | 0.96 ± 0.048 | 0.981 ± 0.043
29 | ZNHIT6 (UniProt Q9NWK9) | 1.03 ± 0.066 | 1.01 ± 0.09 | 1 ± 0.038 | 1.02 ± 0.13 | 1.02 ± 0.12 | 1.07 ± 0.11
30 | UniProt Q9NYP9 | 0.958 ± 0.022 | 0.94 ± 0.022 | 0.927 ± 0.037 | 0.984 ± 0.029 | 0.945 ± 0.029 | 0.931 ± 0.059

2 entries drawn at random from those above, as already listed:
Row | Target | NP40-soluble protein abundance (concentration: 1mM) | NP40-soluble protein abundance (concentration: 2mM) | NP40-soluble protein abundance (concentration: 4mM) | NP40-soluble protein abundance (concentration: 6mM) | NP40-soluble protein abundance (concentration: 8mM) | NP40-soluble protein abundance (concentration: 10mM)
3 | TMOD2 (UniProt Q9NZR1) | 1.02 ± 0.082 | 1.01 ± 0.042 | 1.04 ± 0.065 | 1.06 ± 0.072 | 1.05 ± 0.071 | 1 ± 0.1
2 | UniProt Q9NXH9 and related entries | 1.01 ± 0.021 | 0.9884 ± 0.0048 | 0.973 ± 0.04 | 0.981 ± 0.015 | 0.978 ± 0.042 | 0.99 ± 0.011
